Library screening results

Protein sequences, listed by entry. Tags and fused reporters are not part of them.
UniProt E9BF75, entry or part of it: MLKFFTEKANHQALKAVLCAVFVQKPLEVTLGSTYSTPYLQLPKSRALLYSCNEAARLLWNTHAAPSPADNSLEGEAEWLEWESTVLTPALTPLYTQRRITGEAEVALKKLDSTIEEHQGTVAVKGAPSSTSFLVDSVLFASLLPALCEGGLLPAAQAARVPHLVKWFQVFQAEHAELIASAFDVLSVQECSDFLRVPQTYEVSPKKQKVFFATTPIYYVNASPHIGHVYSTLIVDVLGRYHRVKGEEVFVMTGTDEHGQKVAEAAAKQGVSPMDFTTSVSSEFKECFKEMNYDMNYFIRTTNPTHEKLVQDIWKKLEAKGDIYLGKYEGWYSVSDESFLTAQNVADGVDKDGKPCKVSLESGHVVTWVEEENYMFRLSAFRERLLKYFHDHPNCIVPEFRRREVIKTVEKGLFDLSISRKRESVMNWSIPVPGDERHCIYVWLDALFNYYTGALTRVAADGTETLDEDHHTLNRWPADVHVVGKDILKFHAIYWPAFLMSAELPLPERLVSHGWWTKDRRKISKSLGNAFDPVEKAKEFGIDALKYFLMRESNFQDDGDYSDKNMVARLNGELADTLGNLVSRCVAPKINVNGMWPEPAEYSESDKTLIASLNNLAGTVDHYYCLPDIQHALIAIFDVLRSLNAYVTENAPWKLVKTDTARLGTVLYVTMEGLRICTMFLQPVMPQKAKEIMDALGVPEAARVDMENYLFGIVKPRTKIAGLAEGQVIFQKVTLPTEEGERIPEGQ

Source: ChEMBL document CHEMBL3988442, “University of Dundee, Small-Polar-MMV Screening Library” (2021).

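Methionyl-tRNA synthetase (putative), Leishmania donovani (UniProt E9BF75). Primary screen of methionyl-tRNA synthetase; the read-out is not stated. The test concentration is not given. Values are per cent inhibition. Size under these conditions: about 68,000 compounds, about 24 of them at 50% or above in at least one test.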

All values are in %. How 0% and 100% were set is not recorded. Most values in the screen are low, and negative values occur. This is an unselected part of the compounds tested.

{"compound": "COCCN(C)C[C@@H]1CN(C(=O)c2ccoc2)C[C@@H]1CO", "Inhibition": 12.68}
{"compound": "Cc1c(COC(C)C)cccc1NC(=O)N1CC[C@H](O)C1", "Inhibition": 23.39}
{"compound": "Oc1nnc(-c2ccccc2)c2sc(N3CCCCC3)nc12", "Inhibition": 15.53}
{"compound": "O=C(c1ccc2[nH]cnc2c1)N1CCC(COc2ccccn2)CC1", "Inhibition": 16.67}
{"compound": "COC[C@@]12CC[C@@H](N3CCOCC3)C[C@H]1CCN(c1ncccn1)C2", "Inhibition": 9.63}
{"compound": "CCS(=O)(=O)c1ncc(CN2CCSCC2)n1CCc1ccccc1", "Inhibition": 3.559}
{"compound": "COc1ccc(OCCN(C)CCCn2cnc3c(N)ncnc32)cc1", "Inhibition": 12.15}
{"compound": "CN(C)C(=O)c1ccccc1NCCCOc1cccc(C#N)c1", "Inhibition": 3.663}
{"compound": "COc1cccc(C(C)N2CCN(S(C)(=O)=O)CC2)c1", "stereo": "configuration not stated", "Inhibition": 7.519}
{"compound": "CCc1noc(CN(CC)C(=O)C2CC(=O)N(Cc3ccncc3)C2)n1", "stereo": "configuration not stated", "Inhibition": 4.732}
{"compound": "COc1cccc(CNC(=O)C(C)n2ccnc2C(C)C)c1OC", "stereo": "configuration not stated", "Inhibition": 3.015}
{"compound": "CC(C)(C)c1n[nH]c(C2CN(C(=O)CCC3CC3)CCO2)n1", "stereo": "configuration not stated", "Inhibition": 9.202}
{"compound": "CS(=O)(=O)c1ccc(CN2CCCC3(C2)C(=O)Nc2ccccc23)cc1", "stereo": "configuration not stated", "Inhibition": 4.02}
{"compound": "Cc1ccc(OCC2CCCN(c3cc(C(N)=O)ccn3)C2)cc1", "stereo": "configuration not stated", "Inhibition": 12.54}
{"compound": "COc1ccc(C(=O)N2C[C@@H](C)[C@@](C)(O)C2)cc1N1CCOCC1", "Inhibition": 3.559}
{"compound": "CCC(CNS(C)(=O)=O)Oc1ccccc1C", "stereo": "configuration not stated", "Inhibition": 5.292}
{"compound": "CN1C[C@@H](C(=O)NC2CCCC2)[C@@]2(COc3ccc(F)cc3C2=O)C1", "Inhibition": 6.562}
{"compound": "Cc1c(Br)cccc1C(=O)NCC1CCCNC1", "stereo": "configuration not stated", "Inhibition": 12.23}
{"compound": "Cc1nc(COC[C@@]23CCC[C@@H]2CN(CC2CCOCC2)C3)cs1", "Inhibition": 10.22}
{"compound": "N#Cc1ccc(N2CCCN(C(=O)CC3CCCO3)CC2)cc1", "stereo": "configuration not stated", "Inhibition": 9.804}
{"compound": "c1cncc(-c2noc(C3CN(Cc4cccs4)C3)n2)c1", "Inhibition": 4.317}
{"compound": "CC(=O)N1CCC(c2noc(C3CCC(=O)N3)n2)CC1", "stereo": "configuration not stated", "Inhibition": 5.346}
{"compound": "CC(C)N(C)CC(=O)NCCc1nc(C(F)(F)F)cs1", "Inhibition": 6.183}
{"compound": "c1cc2c(cc1C1(CNC3=NCCN3)CCCC1)OCCO2", "Inhibition": 9.747}
{"compound": "CS(=O)(=O)NCC(=O)N1CCCC1c1noc(C2CC2)n1", "stereo": "configuration not stated", "Inhibition": 12.68}
{"compound": "O=C(CC1CCCO1)NCCc1ccc(Br)cc1F", "stereo": "configuration not stated", "Inhibition": 12.64}
{"compound": "Cc1ccc(-c2ncc(C(=O)N3CCN4CCCCC4C3)c(O)n2)cc1", "stereo": "configuration not stated", "Inhibition": 12.59}
{"compound": "COc1ncc(NCc2cc(C#N)cs2)cc1C(N)=O", "Inhibition": 3.073}
{"compound": "CCOCC(=O)NCC1CCN(Cc2ccsc2)CC1", "Inhibition": 9.014}
{"compound": "CC(C)c1noc(C2CC(=O)N(CCN(C)C)C2)n1", "stereo": "configuration not stated", "Inhibition": 7.034}
{"compound": "Cc1nc(N(C)C/C=C/c2ccccc2)c2cnn(C)c2n1", "Inhibition": 6.494}
{"compound": "Cc1ccc2c(c1)OCCCC2NCc1nccn1Cc1ccccc1", "stereo": "configuration not stated", "Inhibition": 9.42}
{"compound": "Cc1cccc(O[C@H]2COCCN(C3CCC3)C2)n1", "Inhibition": 3.008}
{"compound": "CN(CCC(F)(F)F)C(=O)C1CSCN1C(=O)C(C)(C)C", "stereo": "configuration not stated", "Inhibition": 6.587}
{"compound": "CCc1ccc2c(c1)C(CCNC(=O)Cc1cccc(F)c1)C(=O)N2", "stereo": "configuration not stated", "Inhibition": 12.04}
{"compound": "O=C(C[S+]([O-])c1ccc(F)c(F)c1)NCc1cc(F)cc(F)c1", "stereo": "configuration not stated", "Inhibition": 23.01}
{"compound": "COCC1CN(C(=O)COc2ccc(C)cc2)Cc2cn(C)nc21", "stereo": "configuration not stated", "Inhibition": 16.31}
{"compound": "CCNC(=O)CN(CC)C(=O)c1cc(-c2cccc(Cl)c2)no1", "Inhibition": 6.596}
{"compound": "CCN(CC)Cc1nnc2sc(-c3cc(C(C)C)[nH]n3)nn12", "Inhibition": 15.99}
{"compound": "CC(C)c1cc(CNC(=O)NCc2cccc(N3CC=CC3)c2)on1", "Inhibition": -2.41}
{"compound": "O=C(Cc1ccc2c(c1)CCC2)NC1CCN(Cc2ccccc2)CC1", "Inhibition": 0.3021}
{"compound": "c1ccc(CN2CCN3C[C@H](Oc4cncnc4)C[C@H]3C2)nc1", "Inhibition": 18.7}
{"compound": "O=C(NCc1c[nH]c(=O)[nH]c1=O)C1CCOc2ccccc2C1", "stereo": "configuration not stated", "Inhibition": 5.81}
{"compound": "CCc1noc(CC)c1CNC(=O)Nc1cccc(C(=O)N(C)C)c1", "Inhibition": 11.33}
{"compound": "Cc1ccoc1-c1nnc(CN2CCn3c(nnc3C(C)C)C2)o1", "Inhibition": 15.9}
{"compound": "CC(=O)N(C)CC(=O)NC1(c2ccc(Br)cc2)CC1", "Inhibition": 11.15}
{"compound": "CCCS(=O)(=O)N1CCCC1c1cccc(N(C)C)c1", "stereo": "configuration not stated", "Inhibition": 9.574}
{"compound": "CN(CC(F)F)C(=O)c1cn(-c2ccc(Br)cc2)cn1", "Inhibition": 4.735}
{"compound": "O=C(Nc1ncn(CC(=O)N2CCCCCC2)n1)C1CCCO1", "stereo": "configuration not stated", "Inhibition": 14.29}
{"compound": "Cc1cccc(CC2CCCN(C(=O)C3CCOCC3)C2)n1", "stereo": "configuration not stated", "Inhibition": 10.29}
{"compound": "CCOc1ccc(C#N)cc1NC(=O)N1CCOC(C(N)=O)C1", "stereo": "configuration not stated", "Inhibition": 6.407}
{"compound": "O=C1CC[C@H](C(=O)Nc2cnn(-c3ccccc3Br)c2)N1", "Inhibition": 6.479}

The first 5 entries again:

compound,Inhibition
COCCN(C)C[C@@H]1CN(C(=O)c2ccoc2)C[C@@H]1CO,12.68
Cc1c(COC(C)C)cccc1NC(=O)N1CC[C@H](O)C1,23.39
Oc1nnc(-c2ccccc2)c2sc(N3CCCCC3)nc12,15.53
O=C(c1ccc2[nH]cnc2c1)N1CCC(COc2ccccn2)CC1,16.67
COC[C@@]12CC[C@@H](N3CCOCC3)C[C@H]1CCN(c1ncccn1)C2,9.63